For test [1], the target named is BLK fused to the miniTurbo (mT) biotin ligase (UniProt P51451). In words: proximity labelling.
Test [2] has as its target LYN fused to the miniTurbo (mT) biotin ligase (UniProt P07948). In words: proximity labelling.

Sequences of proteins named here, by UniProt entry; tags and fusion partners are left off. A change or cut given only in a name is not applied to a line headed by its entry. Residues count along the entry.
UniProt P51451: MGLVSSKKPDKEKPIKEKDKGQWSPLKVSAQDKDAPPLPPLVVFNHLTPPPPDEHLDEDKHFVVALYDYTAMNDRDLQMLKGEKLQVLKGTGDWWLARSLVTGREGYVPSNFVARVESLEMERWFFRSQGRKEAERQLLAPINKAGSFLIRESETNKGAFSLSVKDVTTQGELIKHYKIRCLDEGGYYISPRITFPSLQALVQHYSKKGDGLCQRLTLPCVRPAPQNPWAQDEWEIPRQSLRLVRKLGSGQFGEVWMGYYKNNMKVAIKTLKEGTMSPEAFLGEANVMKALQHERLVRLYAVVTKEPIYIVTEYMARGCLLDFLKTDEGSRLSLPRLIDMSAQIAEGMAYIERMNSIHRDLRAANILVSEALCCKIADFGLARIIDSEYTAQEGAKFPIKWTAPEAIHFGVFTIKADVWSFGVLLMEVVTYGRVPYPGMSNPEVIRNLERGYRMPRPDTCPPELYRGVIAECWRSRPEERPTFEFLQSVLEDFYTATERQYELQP
UniProt P07948: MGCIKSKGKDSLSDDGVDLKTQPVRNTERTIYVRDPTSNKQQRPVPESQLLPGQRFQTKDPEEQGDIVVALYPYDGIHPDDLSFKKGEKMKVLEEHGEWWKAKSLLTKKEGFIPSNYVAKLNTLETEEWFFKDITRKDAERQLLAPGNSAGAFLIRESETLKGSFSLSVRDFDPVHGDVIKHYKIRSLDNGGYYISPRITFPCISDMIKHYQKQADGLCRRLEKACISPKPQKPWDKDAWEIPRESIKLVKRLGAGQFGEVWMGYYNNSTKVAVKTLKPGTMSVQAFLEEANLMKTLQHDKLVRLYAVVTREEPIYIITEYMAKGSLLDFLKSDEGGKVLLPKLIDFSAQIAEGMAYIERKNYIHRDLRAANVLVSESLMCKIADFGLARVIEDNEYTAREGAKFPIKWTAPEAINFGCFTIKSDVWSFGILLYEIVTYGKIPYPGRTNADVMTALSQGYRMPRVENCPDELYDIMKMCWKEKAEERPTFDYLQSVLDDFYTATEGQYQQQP
UniProt O14672: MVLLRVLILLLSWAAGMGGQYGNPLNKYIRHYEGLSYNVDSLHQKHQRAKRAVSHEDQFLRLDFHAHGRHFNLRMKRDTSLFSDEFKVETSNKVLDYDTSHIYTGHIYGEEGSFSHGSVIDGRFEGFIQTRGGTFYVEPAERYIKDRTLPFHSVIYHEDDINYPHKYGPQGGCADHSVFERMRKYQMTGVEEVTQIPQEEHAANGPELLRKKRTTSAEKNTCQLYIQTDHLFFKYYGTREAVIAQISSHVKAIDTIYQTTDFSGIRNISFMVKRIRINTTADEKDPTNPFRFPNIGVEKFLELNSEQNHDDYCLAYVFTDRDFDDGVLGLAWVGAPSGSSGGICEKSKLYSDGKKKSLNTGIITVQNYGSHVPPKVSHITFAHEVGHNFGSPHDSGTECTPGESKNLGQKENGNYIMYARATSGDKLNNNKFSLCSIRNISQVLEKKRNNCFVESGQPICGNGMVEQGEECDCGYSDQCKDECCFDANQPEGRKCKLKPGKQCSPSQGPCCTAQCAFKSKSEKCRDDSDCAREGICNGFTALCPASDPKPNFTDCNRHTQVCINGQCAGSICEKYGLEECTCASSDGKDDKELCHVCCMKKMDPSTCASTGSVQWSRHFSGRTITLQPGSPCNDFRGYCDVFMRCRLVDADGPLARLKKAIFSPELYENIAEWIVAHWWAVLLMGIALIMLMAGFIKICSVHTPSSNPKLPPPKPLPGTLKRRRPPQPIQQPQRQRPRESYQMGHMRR
UniProt Q13191: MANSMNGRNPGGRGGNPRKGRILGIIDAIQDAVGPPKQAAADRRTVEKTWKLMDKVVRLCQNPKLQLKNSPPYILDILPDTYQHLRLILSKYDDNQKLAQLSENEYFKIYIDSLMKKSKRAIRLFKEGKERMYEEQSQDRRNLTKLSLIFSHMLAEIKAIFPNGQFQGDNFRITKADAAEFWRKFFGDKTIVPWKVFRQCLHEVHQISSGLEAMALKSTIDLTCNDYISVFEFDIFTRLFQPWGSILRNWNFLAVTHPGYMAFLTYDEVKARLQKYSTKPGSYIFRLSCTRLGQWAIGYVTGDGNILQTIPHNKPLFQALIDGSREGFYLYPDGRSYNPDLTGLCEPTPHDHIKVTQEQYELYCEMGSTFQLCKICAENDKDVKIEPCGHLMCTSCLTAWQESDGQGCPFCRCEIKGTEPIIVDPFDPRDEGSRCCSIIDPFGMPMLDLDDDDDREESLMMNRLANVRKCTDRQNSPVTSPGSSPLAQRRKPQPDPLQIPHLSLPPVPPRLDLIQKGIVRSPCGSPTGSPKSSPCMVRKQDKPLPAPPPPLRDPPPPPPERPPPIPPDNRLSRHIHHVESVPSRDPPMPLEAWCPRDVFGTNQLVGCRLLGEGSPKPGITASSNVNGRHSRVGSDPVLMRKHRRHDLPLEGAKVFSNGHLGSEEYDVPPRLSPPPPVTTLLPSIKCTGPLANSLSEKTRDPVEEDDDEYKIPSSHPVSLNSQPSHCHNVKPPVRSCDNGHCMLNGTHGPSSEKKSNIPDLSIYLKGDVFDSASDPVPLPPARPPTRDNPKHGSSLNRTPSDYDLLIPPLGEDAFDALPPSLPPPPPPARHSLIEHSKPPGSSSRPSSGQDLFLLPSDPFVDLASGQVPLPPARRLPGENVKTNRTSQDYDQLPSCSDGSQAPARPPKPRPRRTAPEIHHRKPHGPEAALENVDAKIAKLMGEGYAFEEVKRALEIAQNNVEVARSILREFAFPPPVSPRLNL
UniProt Q92542, residues 34-709: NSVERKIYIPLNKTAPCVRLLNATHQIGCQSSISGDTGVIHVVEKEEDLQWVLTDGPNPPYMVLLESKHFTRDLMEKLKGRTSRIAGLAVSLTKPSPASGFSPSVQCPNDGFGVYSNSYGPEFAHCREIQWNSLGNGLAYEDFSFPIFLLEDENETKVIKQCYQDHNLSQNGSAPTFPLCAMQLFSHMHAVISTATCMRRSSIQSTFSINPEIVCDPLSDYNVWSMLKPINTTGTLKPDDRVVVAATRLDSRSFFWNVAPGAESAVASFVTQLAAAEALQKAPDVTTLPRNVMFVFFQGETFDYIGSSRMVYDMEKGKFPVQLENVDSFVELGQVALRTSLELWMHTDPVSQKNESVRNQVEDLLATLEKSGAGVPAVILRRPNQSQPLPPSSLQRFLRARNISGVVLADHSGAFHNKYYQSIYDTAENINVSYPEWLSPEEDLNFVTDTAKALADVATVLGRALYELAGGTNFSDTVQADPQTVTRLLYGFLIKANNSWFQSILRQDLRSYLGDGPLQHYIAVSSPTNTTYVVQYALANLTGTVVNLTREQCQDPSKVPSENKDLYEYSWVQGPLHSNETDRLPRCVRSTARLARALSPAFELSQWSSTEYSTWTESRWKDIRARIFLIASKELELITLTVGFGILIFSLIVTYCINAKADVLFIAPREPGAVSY

Results are given in words; binding and its absence hold for the method and conditions named. Binding seen in cells or lysates may run through a third protein. A yes stands for co-enrichment or nearness to the bait. Other partners may have been found.

With ADAM10 (from UniProt O14672), in test [1], the binding result is “binds”. With “E3 ligase CBL-B (from UniProt Q13191 1-982)”, the binding entry in test [2] is “binds”. In the case of “γ-secretase subunit NCSTN (from UniProt Q92542 34-709)”, in test [1], the binding result was “binds”.
